Data on 38 compounds can be found in PubChem BioAssay AID2685 (National Center for Advancing Translational Sciences (NCATS), 2010).

The list shows a part of the results. Further columns of the screen follow, without active or inactive calls. Compounds called inactive in the main read-out are mostly missing here. The note in brackets gives the kind of curve behind each potency; many fits are weak.

The nature of the assay: qHTS Assay for Lipid Storage Modulators in Drosophila S3 Cells.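 As to cell number change: cells counted by Cell Tracker Red CMTPX staining in the red channel.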 The note with it: BODIPY lipid droplet fluorescence, 18-24 h; for cell number change: measured here: cell count max response, cells fed with added oleic acid. In a few lines: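 Drosophila S3 cells loaded with oleic acid (400 uM, as added) and compounds at several concentrations; lipid droplets imaged by 488-nm laser-scanning cytometry, 500–530 nm intensity and object ratio to cell channel. Percent activity normalized to 20 uM Triacsin C.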
On the technique in general: Quantitative high-throughput screening tests each substance at several concentrations.

Where [1] appears, read: measured here: lipid fluorescence (Fed channel) AC50, cells fed with added oleic acid.
The mark [2] stands for this setting: measured here: cell number channel AC50, cells fed with added oleic acid.

By AC50 is commonly meant the midpoint of the concentration-response curve, whichever way the signal moves. Consider `CC(=O)N1CCN(C(=O)CC2OC(=O)c3ccccc32)CC1` (configuration not stated), for which the cell number change is -15.2%. In addition, the AC50 under setting [1] is 20.6 µM [falling, single point].
On to `CCN(CC)C(=O)CC(c1cc(OC)c(OC)c(OC)c1)c1c(OC)cc(OC)c2c(-c3ccccc3)cc(=O)oc12` (configuration not stated), for which the cell number change amounted to 12.4%. Besides, the AC50 under setting [2] is 2.31 µM [rising, partial curve].
For `COc1ccc(CCNCC(O)COc2ccc(Cl)cc2)cc1OC` (configuration not stated), the cell number change was 10.4%. Besides, under setting [1], the AC50 was 18.4 µM [rising, partial curve].
As for `CCOCCCNC(=O)C1CC(=O)N(CCc2ccccc2)C1` (configuration not stated), the cell number change stood at 20.6%.
`CCOc1ccc(NS(=O)(=O)c2ccc(C(=O)NCc3ccncc3)cc2)cc1`: the cell number change was found to be 48%. The AC50 under setting [2] is 7.31 µM [rising, partial curve]. For the same compound, the AC50 under setting [1] was 7.31 µM [rising, partial curve].
For the compound `CN1CCCN(C(=O)c2cccc(Br)c2)CC1`, the cell number change came to 4.4%. In addition, the AC50 under setting [1] is 29.1 µM [rising, single point].
`COc1ccc2nc(NC(=O)c3ccc([N+](=O)[O-])o3)sc2c1`: the cell number change is -18.4%. Also, the AC50 under setting [1] is 6.51 µM [falling, single point].
In the case of `COC(=O)c1c(NC(=O)C2CCCCC2C(=O)O)sc2c1CCCCC2` (configuration not stated), the cell number change was 32.2%. Also, the AC50 under setting [2] is 1.84 µM [rising, partial curve, poor fit].
Turning to `O=C(Nc1ccc([N+](=O)[O-])cc1)c1ccc(S(=O)(=O)N2CCCC2)cc1`, the cell number change turned out to be 162%. Moreover, under setting [1], the AC50 was 29.1 µM [falling, single point].
In the case of `Cc1ccc(CN(C)CC(=O)Nc2cccc([N+](=O)[O-])c2)o1`, the cell number change is 6.84%. For the same compound, the concentration at half-maximal activity (AC50) under setting [2] was 7.31 µM [falling, partial curve, poor fit]. In addition, the AC50 under setting [1] was 6.51 µM [falling, single point].
With `Cc1ccc(S(=O)(=O)N/N=C\c2ccc([N+](=O)[O-])o2)cc1C`, the cell number change is -9.19%.
As for `Cc1ccc(NC(=O)C2CCCN(C3=NS(=O)(=O)c4ccccc43)C2)c(O)c1` (configuration not stated), the cell number change was -7.96%. Besides, the AC50 under setting [1] is 5.17 µM [falling, partial curve, poor fit].
For `COc1ccccc1N=C(C)C1=C(O)CSC1=O`, the cell number change was determined as 59.1%. The AC50 under setting [2] was 18.4 µM [rising, single point].
Consider `Cn1c(=O)c2nc3ccccc3nc2n(C)c1=O`, for which the cell number change is 20.3%. The concentration at half-maximal activity (AC50) under setting [1] was 14.6 µM [rising, partial curve, poor fit].
In the case of `CCn1c(C(=O)N2CCC(Cc3ccccc3)CC2)cc2sccc21`, the cell number change was -10.9%. Moreover, under setting [1], the AC50 was 1.84 µM [falling, single point].
Take `CCNC(=O)COC(=O)C1C(C(=O)OCC)=C(C)NC(C)=C1C(=O)OCC`: the cell number change is 32.8%. Moreover, the AC50 under setting [2] was 14.6 µM [rising, partial curve, poor fit]. Also, the concentration at half-maximal activity (AC50) under setting [1] was 4.11 µM [rising, single point].
Turning to `Cc1ccccc1NC(=O)c1c([N+](=O)[O-])cnn1C`, the cell number change was found to be 18.4%.
`Cn1c(Cn2nnc3ccccc32)nnc1SCC(N)=O`: the cell number change came out at 6.54%. Further, under setting [1], the AC50 is 29.1 µM [falling, single point].
For the compound `CCOc1ccc(-c2[nH]ncc2Oc2ccccc2OCC)c(O)c1`, the cell number change was -65.5%. Also, under setting [2], the AC50 was 29.1 µM [falling, single point]. In addition, under setting [1], the AC50 is 20.6 µM [falling, single point].
Take `C[C@H]1O[C@@H](O[C@H]2[C@@H](O)C[C@H](O[C@H]3[C@@H](O)C[C@H](O[C@H]4CC[C@@]5(C)[C@H](CC[C@@H]6[C@@H]5C[C@@H](O)[C@]5(C)[C@@H](C7=CC(=O)OC7)CC[C@]65O)C4)O[C@@H]3C)O[C@@H]2C)C[C@H](O)[C@@H]1O`: the cell number change is -21.8%. In addition, under setting [1], the AC50 is 3.66 µM [rising, full curve, poor fit].
On to `CCc1nc2ccccc2c(C(=O)Oc2ccc(C(=O)OC)cc2)c1C`, for which the cell number change was -35.8%. For the same compound, the AC50 under setting [1] is 10.3 µM [rising, partial curve].
On to `Cc1cc([N+](=O)[O-])ccc1NC(=O)c1cncc(Br)c1`, for which the cell number change was found to be 6.68%. For the same compound, the AC50 under setting [1] is 20.6 µM [rising, partial curve].
For `Cc1ccc(S(=O)(=O)/N=C(\N)Nc2nc(C)c3ccccc3n2)cc1`, the cell number change was determined as 12.9%. For the same compound, under setting [1], the AC50 is 0.0651 µM [rising, full curve, poor fit].
`O=C(CN1C(=O)CC(c2ccccc2)=Nc2ccccc21)NCc1ccco1`: the AC50 was 3.26 µM [rising, single point] under setting [2] and 2.31 µM [rising, partial curve] under setting [1].
For the compound `COc1ccc(/C=N/N2CCN(c3ccccc3OC)CC2)cc1Br`, the cell number change came out at 5.84%. Further, the AC50 under setting [1] was 29.1 µM [falling, single point].
As for `CCCN(Cc1ccc(N(C)C)cc1)CC1CC1`, the cell number change worked out at 4.81%.
Turning to `Cn1c(SCC(=O)N2CCOCC2)nnc1-c1cccc(NC(=O)c2ccccc2)c1`, the cell number change is -11.3%.
For the compound `CCN(C(=O)CN1CCOCC1)c1c(N)n(Cc2ccccc2)c(=O)[nH]c1=O`, the half-maximal activity concentration (AC50) under setting [1] is 0.58 µM [falling, partial curve].
With `Cc1ccc(OCC(O)Cn2c(N3CCCCC3)nc3c2c(=O)[nH]c(=O)n3C)cc1` (configuration not stated), the cell number change was 28.9%. Moreover, the AC50 under setting [2] was 0.731 µM [rising, full curve, poor fit].
Consider `Cc1cc(-c2cccs2)nc(-n2cccc2)n1`, for which the cell number change is 19.8%. Also, the AC50 under setting [1] was 13 µM [rising, partial curve].
As for `O=C(Nc1nc(-c2ccccc2)cs1)c1ccc(S(=O)(=O)N2CCc3ccccc32)cc1`, the cell number change came out at 15.9%. The concentration at half-maximal activity (AC50) under setting [1] is 6.51 µM [rising, single point].
As to `CCCCn1c(N)c(N(CCOC)C(=O)c2ccc(-c3ccccc3)cc2)c(=O)[nH]c1=O`, the cell number change amounted to 11.5%.
With `O=C(/C=C/C(=O)NCc1cccs1)NCc1cccs1`, the cell number change is 22.3%. Also, the concentration at half-maximal activity (AC50) under setting [1] is 29.1 µM [rising, single point].
On to `O=C(NCCCn1ccnc1)c1ccc(NS(=O)(=O)c2cccc([N+](=O)[O-])c2)cc1`, for which the cell number change was determined as 10.3%. Under setting [1], the AC50 is 18.4 µM [rising, single point].
For `COc1ccccc1NC(=O)C1=C(C)NC2=C(C(=O)CCC2)C1c1ccc2c(c1)OCO2` (configuration not stated), the cell number change was found to be 4.52%. The concentration at half-maximal activity (AC50) under setting [1] is 4.61 µM [rising, full curve, poor fit].
Consider `O=C(COc1ncnc2cc([N+](=O)[O-])ccc12)NC(=O)NC1CCCCC1`, for which the cell number change was determined as 34.6%. The AC50 under setting [2] was 32.6 µM [rising, single point].
`Cc1ccc(C(=O)NC(=S)NNC(=O)c2cccc([N+](=O)[O-])c2)cc1`: the cell number change was -5.61%.
`Cc1c(C(=O)N2CCN(c3ncccn3)CC2)sc2nc3n(c(=O)c12)CCCC3`: the cell number change was found to be 3.85%. Also, the AC50 under setting [1] is 0.651 µM [rising, single point].
